The target in assay [1] is MITA (endogenous in HFFs) (human (endogenous in HFF)) (UniProt Q86WV6). Description: co-IP.
Assay [2] deals with cGAS (endogenous in HFFs) (human (endogenous in HFF)) (UniProt Q8N884). Description: co-IP.

Sequences of proteins named here, by UniProt entry; tags and fusion partners are left off.
UniProt Q86WV6: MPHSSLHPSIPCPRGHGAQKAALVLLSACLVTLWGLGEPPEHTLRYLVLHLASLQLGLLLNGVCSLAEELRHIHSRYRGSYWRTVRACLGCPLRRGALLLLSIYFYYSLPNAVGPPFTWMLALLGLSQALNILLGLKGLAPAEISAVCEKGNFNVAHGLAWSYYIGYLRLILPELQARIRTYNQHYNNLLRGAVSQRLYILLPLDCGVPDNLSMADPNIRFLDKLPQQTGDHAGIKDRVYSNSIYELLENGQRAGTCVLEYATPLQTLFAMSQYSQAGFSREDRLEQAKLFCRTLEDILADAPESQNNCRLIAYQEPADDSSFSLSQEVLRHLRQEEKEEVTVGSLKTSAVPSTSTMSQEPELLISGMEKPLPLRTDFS
UniProt Q8N884: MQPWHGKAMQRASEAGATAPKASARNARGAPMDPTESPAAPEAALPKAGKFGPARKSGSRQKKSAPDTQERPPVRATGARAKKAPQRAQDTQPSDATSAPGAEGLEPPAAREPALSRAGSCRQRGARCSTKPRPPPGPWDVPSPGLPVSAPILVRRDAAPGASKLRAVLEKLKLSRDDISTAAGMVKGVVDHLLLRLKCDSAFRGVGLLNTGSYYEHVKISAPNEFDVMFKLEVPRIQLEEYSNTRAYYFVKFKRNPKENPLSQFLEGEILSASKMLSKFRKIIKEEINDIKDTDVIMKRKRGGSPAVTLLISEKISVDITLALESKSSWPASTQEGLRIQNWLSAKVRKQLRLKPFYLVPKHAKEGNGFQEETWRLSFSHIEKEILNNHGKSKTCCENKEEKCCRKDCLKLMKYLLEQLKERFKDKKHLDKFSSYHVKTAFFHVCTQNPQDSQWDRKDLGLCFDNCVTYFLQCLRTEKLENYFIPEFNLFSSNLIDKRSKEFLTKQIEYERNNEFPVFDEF
UniProt P16815: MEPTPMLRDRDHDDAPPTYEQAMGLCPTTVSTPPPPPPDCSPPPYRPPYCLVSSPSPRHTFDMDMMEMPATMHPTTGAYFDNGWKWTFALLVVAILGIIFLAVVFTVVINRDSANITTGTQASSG

Results are given in words; binding and its absence hold for the method and conditions named. Binding seen in cells or lysates may run through a third protein. Some results given as binding are weak or reduced against the parent protein; the word gives no strength.

“HCMV UL42 (endogenous, from infection) (from UniProt P16815 1-125)”: the binding entry in assay [1] and in assay [2] was “binds” in each case.

Source of the values: PMC6527189.
